Results deposited as PubChem BioAssay AID504764 (Drosophila RNAi Screening Center, 2011).
The screen tested about 22,000 reagents; below is a random part of those with a known target gene and a result. Of all reagents, 403 (1.9%) are marked active. 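Unnormalised raw counts per well; ratio z-scores behind the hit calls and whether each hit raises or lowers signal are not deposited.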 A plus sign joins genes that one reagent is predicted to hit. No sequences are given here. Not given: the amount of reagent.

- Purpose: 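Knock-downs that raise or lower a Notch target reporter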 (primary screen)
- System: Drosophila Kc167 cells
- Knock-down reagent: long dsRNA against Drosophila genes
- Timing: about 5 days (4 days dsRNA, then 24 h after transfection)
- Challenge: transfection of constitutively active membrane-tethered Notch lacking the extracellular domain, read 24 h later
- Measurement: 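Firefly luciferase from an E(spl)m3 reporter with active Notch, plus control-promoter and uninduced reporter wells for normalisation; unnormalised counts, duplicate wells a and b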
- Direction: induced reporter light, run 1, well a and induced reporter light, run 1, well b: higher = more light from the Notch target reporter with active Notch; control promoter light, run 1, well a and control promoter light, run 1, well b: higher = more light from the viral control promoter (cell number, transfection, viability); uninduced reporter light, run 1, well a: higher = more light from the Notch target reporter without active Notch
- Hit rule: 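Wells with low control signal or poorly matching duplicates excluded; duplicates averaged; per source plate, z beyond ±2 for induced/control log2 ratio or beyond ±1.8 for induced/uninduced marks a hit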
- Calls: active = modifier hit (raised or lowered Notch signal); inactive = not a hit

| target | PubChem SID | induced reporter light, run 1, well a | induced reporter light, run 1, well b | control promoter light, run 1, well a | control promoter light, run 1, well b | uninduced reporter light, run 1, well a | Outcome |
| --- | --- | --- | --- | --- | --- | --- | --- |
| Ctu2 | SID104181816 | 2.00e5 | 1.98e5 | 1.73e5 | 1.92e5 | 14810 | inactive |
| RPA3 | SID104199450 | 1.10e5 | 95550 | 1.59e5 | 1.75e5 | 7890 | inactive |
| mth | SID104188517 | 73230 | 72855 | 98735 | 1.21e5 | 6078 | inactive |
| CG15545 | SID104194875 | 1.24e5 | 1.06e5 | 1.58e5 | 1.65e5 | 9555 | inactive |
| Hydr1 | SID104186855 | 1.40e5 | 1.41e5 | 2.37e5 | 2.38e5 | 12140 | inactive |
| Zyx | SID104196978 | 56710 | 75955 | 89845 | 91270 | 6140 | inactive |
| RpS4 | SID104191064 | 12688 | 12238 | 15490 | 17040 | 740 | inactive |
| CG12780 | SID104185961 | 1.73e5 | 1.58e5 | 1.72e5 | 2.09e5 | 14285 | inactive |
| Plc21C | SID104180565 | 1.96e5 | 2.38e5 | 2.45e5 | 2.73e5 | 20385 | inactive |
| Targ | SID104185998 | 92470 | 1.06e5 | 1.12e5 | 92975 | 6755 | inactive |
| CG17140 + CG17139 | SID104182377 | 1.39e5 | 1.97e5 | 1.01e5 | 1.17e5 | 19240 | inactive |
| CG17140 + CG17139 | SID104182378 | 1.16e5 | 1.45e5 | 73445 | 89345 | 17065 | inactive |
| Rev1 | SID104188056 | 1.12e5 | 94340 | 1.76e5 | 2.04e5 | 7882 | inactive |
| CG11927 | SID104180129 | 1.95e5 | 1.69e5 | 1.87e5 | 1.81e5 | 18130 | inactive |
| bbc | SID104186750 | 1.79e5 | 1.92e5 | 1.63e5 | 1.96e5 | 18550 | inactive |
| bbc | SID104201817 | – | – | – | – | – | inactive |
| CG14104 | SID104189898 | 1.23e5 | 1.13e5 | 1.21e5 | 1.22e5 | 9300 | inactive |
| Cp190 | SID104196399 | 1.09e5 | 1.19e5 | 94030 | 95640 | 9950 | inactive |
| Cdlc2 | SID104180535 | 1.08e5 | 88320 | 86320 | 83275 | 6450 | inactive |
| Tet | SID104188342 | 1.07e5 | 1.10e5 | 2.59e5 | 2.23e5 | 8370 | inactive |
| mbo | SID104195915 | 1.30e5 | 1.31e5 | 95020 | 80685 | 8825 | inactive |
| Osi17 | SID104192076 | 81305 | 64500 | 52465 | 49980 | 5045 | inactive |
| CG15099 | SID104186320 | 1.01e5 | 82760 | 1.60e5 | 2.17e5 | 9242 | inactive |
| Srp9 | SID104190765 | 2.39e5 | 1.99e5 | 2.98e5 | 2.55e5 | 14160 | inactive |
| mRpL54 | SID104184337 | 1.99e5 | 1.93e5 | 1.67e5 | 1.79e5 | 15125 | inactive |
| CG12998 | SID104199310 | 1.14e5 | 94785 | 1.07e5 | 1.05e5 | 14160 | inactive |
| fand | SID104186759 | 98900 | 85385 | 1.10e5 | 88590 | 6825 | inactive |
| CG2291 | SID104186628 | 2.10e5 | 2.24e5 | 2.57e5 | 2.32e5 | 19645 | inactive |
| Tusp | SID104195630 | 1.54e5 | 1.51e5 | 1.85e5 | 1.78e5 | 12555 | inactive |
| stac | SID104193485 | 1.89e5 | 1.77e5 | 2.15e5 | 2.15e5 | 17185 | inactive |
| stac | SID104194184 | 1.52e5 | 1.50e5 | 1.80e5 | 1.94e5 | 15460 | inactive |
| CG18301 | SID104182454 | 1.42e5 | 1.63e5 | 72240 | 93660 | 19955 | inactive |
| mRpS11 | SID104195524 | 2.53e5 | 1.98e5 | 1.87e5 | 1.89e5 | 17645 | inactive |
| ND-B8 | SID104180241 | 1.43e5 | 1.54e5 | 1.87e5 | 1.53e5 | 9970 | inactive |
| PPO1 | SID104185721 | 98805 | 1.04e5 | 1.86e5 | 3.04e5 | 9495 | inactive |
| Muc30E | SID104180893 | 1.22e5 | 1.06e5 | 1.31e5 | 1.35e5 | 9770 | inactive |
| CG8112 | SID104196169 | 58290 | 79200 | 64195 | 56830 | 4660 | inactive |
| Gyc76C + CG42637 | SID104190972 | 1.17e5 | 1.15e5 | 84705 | 1.10e5 | 9132 | inactive |
| ATP8B | SID104194753 | 72035 | 69170 | 77395 | 50605 | 17500 | inactive |
| CG16700 | SID104199547 | 1.17e5 | 1.11e5 | 1.11e5 | 98080 | 12320 | inactive |
| CG44422 | SID104198677 | 1.03e5 | 1.06e5 | 1.36e5 | 1.35e5 | 6085 | inactive |
| CG44422 | SID104199172 | 64770 | 77025 | 99395 | 82620 | 9715 | inactive |
| CG44422 | SID104199272 | 67345 | 58295 | 1.16e5 | 1.42e5 | 8085 | inactive |
| His3.3A | SID104183135 | 6265 | 5020 | 10365 | 8715 | 1055 | active |
| fh | SID104198222 | 1.02e5 | 88815 | 96025 | 1.36e5 | 7755 | inactive |
| CG14606 | SID104192342 | 96335 | 1.10e5 | 88900 | 74785 | 5435 | inactive |
| cnk | SID104187387 | 1.02e5 | 74380 | 65315 | 83800 | 6075 | inactive |
| CG3065 | SID104184125 | 1.22e5 | 1.57e5 | 86985 | 99880 | 10540 | inactive |
| Su(fu) | SID104196663 | 1.83e5 | 1.40e5 | 93400 | 78195 | 11245 | inactive |
| scrib | SID104193566 | 1.64e5 | 1.46e5 | 1.51e5 | 1.62e5 | 13805 | inactive |
| scrib | SID104195601 | 1.67e5 | 1.69e5 | 2.03e5 | 2.09e5 | 11125 | inactive |
| scrib | SID104196843 | 1.59e5 | 95665 | 2.01e5 | 1.75e5 | 12080 | inactive |

7 consecutive reagents already listed, for reference:
| target | PubChem SID | induced reporter light, run 1, well a | induced reporter light, run 1, well b | control promoter light, run 1, well a | control promoter light, run 1, well b | uninduced reporter light, run 1, well a | Outcome |
| --- | --- | --- | --- | --- | --- | --- | --- |
| Targ | SID104185998 | 92470 | 1.06e5 | 1.12e5 | 92975 | 6755 | inactive |
| CG17140 + CG17139 | SID104182377 | 1.39e5 | 1.97e5 | 1.01e5 | 1.17e5 | 19240 | inactive |
| CG17140 + CG17139 | SID104182378 | 1.16e5 | 1.45e5 | 73445 | 89345 | 17065 | inactive |
| Rev1 | SID104188056 | 1.12e5 | 94340 | 1.76e5 | 2.04e5 | 7882 | inactive |
| CG11927 | SID104180129 | 1.95e5 | 1.69e5 | 1.87e5 | 1.81e5 | 18130 | inactive |
| bbc | SID104186750 | 1.79e5 | 1.92e5 | 1.63e5 | 1.96e5 | 18550 | inactive |
| bbc | SID104201817 | – | – | – | – | – | inactive |
